In all, about 320,000 compounds went through this assay and about 2,100 (0.66%) were called active. The inconclusive results got no clear call from the source; some entries with a clear call stand among them for comparison. Calls come from the whole dose curve; as a rule, active = well fitted inhibition curve with a large enough effect in the signal ratio, with a control signal flat (not every such curve was filed as active); inconclusive = small, poorly fitted or top-dose-only effect, or effect the other way, or a change in a side signal; inactive = flat fitted curve, though single readings scatter; the % refers to the signal ratio. A potency beside an inconclusive call is a rough fit, not a confirmed value.
assay: qHTS Assay for Lipid Storage Modulators in Drosophila S3 Cells; conditions: BODIPY lipid droplet fluorescence, 18-24 h, cells fed with added oleic acid; lipid storage change, negative = inhibition: at 46.1 µM (top of the series) unless noted
Summary of the method: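 Laser-scanning cytometry quantifies lipid droplet accumulation (500–530 nm total intensity; droplet/cell object ratio) in oleic acid-fed (400 uM added) Drosophila S3 cells treated with a concentration series. 20 uM Triacsin C defined 100% inhibition.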
% is set by controls: 0 for no effect and ±100 for the full control effect; potency is the fitted concentration of half-maximal effect.

| Compound | Potency | lipid storage change, negative = inhibition |
| --- | --- | --- |
| CCc1ccc(CN2CCSCC2)cc1 | inconclusive: 23.1 µM [activator, partial curve] |  |
| CC(C)Cn1c(-c2cc(Br)ccc2F)nc2c1c(=O)[nH]c(=O)n2CC(C)C | inconclusive: 0.116 µM [falling, full curve, poor fit] |  |
| COc1ccc(-c2cc(C(F)F)n3ncc(C(=O)Nc4c(C)n(C)n(-c5ccccc5)c4=O)c3n2)cc1 | inconclusive: 4.11 µM [falling, single point] |  |
| O=C(Cn1nnc(-c2cccs2)n1)OC1CCCCC1 |  | inconclusive: -5.95% |
| CC(C)N(CC#CCC(O)(c1ccccc1)C1CCCC1)CCO (stereo not drawn) |  | inconclusive: 21.9% |
| COc1ccc(C(=O)NC(C)c2ccc(-n3ccnc3)cc2)cc1S(=O)(=O)N1CCOCC1 (stereo not drawn) |  | inconclusive |
| CN(Cc1ccccc1)/C(=N/O)c1cccc(Cl)c1 |  | inconclusive: -2.47% |
| NNc1ccc2nncn2n1 |  | inconclusive: -15.6% |
| NC(=O)COC(=O)CCCc1nc2ccccc2s1 | inconclusive: 6.51 µM [falling, single point] |  |
| O=C(COC(=O)c1cc(Br)c(Br)s1)NCCC1=CCCCC1 |  | inconclusive: -22.9% |
| COc1ccc(Cl)cc1N1C(=N)SCC1=O |  | inconclusive: -0.849% |
| CCn1ccnc1CC1COc2ccccc2O1 (stereo not drawn) |  | inconclusive: 11.5% |
| COc1ccc(C(C(=O)NC(C)(C)C)N(C(=O)Cn2nnc3ccccc32)c2cccc(C(C)=O)c2)cc1O (stereo not drawn) |  | inconclusive: -1.91% |
| O=C(CN1C(=O)S/C(=C\c2ccccc2)C1=O)NNC(=O)c1ccccc1O | inconclusive: 0.146 µM [falling, full curve, poor fit] |  |
| CCCCN(C)C(=O)Cn1cnc2sc(C)c(S(=O)(=O)N3CCN(c4ccccc4OC)CC3)c2c1=O |  | inconclusive: -83.3% |
| Cc1cccc2cc3c(N)c(C(=O)N4CCCc5ccccc54)sc3nc12 | inconclusive: 4.61 µM [falling, single point] |  |
| Cc1cc(N)n2nc(-c3ccc(C(C)(C)C)cc3)cc2n1 | inconclusive: 6.51 µM [rising, single point] |  |
| CCn1nnc(NC(=O)c2c(OC)cccc2OC)n1 | inconclusive: 0.116 µM [falling, full curve, poor fit] |  |
| Cc1cc(C)n(-c2nc(SCC(=O)Nc3nccs3)c3c4c(sc3n2)COC(C)(C)C4)n1 |  | inconclusive: 16.3% |
| N#C/C(=C\c1ccc(C(=O)O)cc1)c1ccccn1 |  | inconclusive: 21.4% |
| COc1ccc(/C=C/C(=O)c2ccc(O)cc2)cc1CN1CCOCC1 | inconclusive: 29.1 µM [falling, single point] |  |
| Cc1cc(C(=O)O)c(CSCc2cc(C(=O)O)oc2C)o1 | inconclusive: 18.4 µM [activator, single point] |  |
| Cc1csc(CN(C)C(=O)CC2C(=O)NCCN2Cc2ccc(Cl)c(F)c2)n1 (stereo not drawn) | inconclusive: 6.51 µM [falling, single point] |  |
| COc1ccc(C(C)=O)cc1CSc1nnc(C)n1-c1ccccc1 |  | inconclusive: -150% |
| COc1ccccc1-n1ccnc(SCC(=O)NCCc2ccccc2)c1=O | inconclusive: 9.2 µM [activator, partial curve] |  |
| CC(C)(C)n1c(=O)[nH]c2c(c1=O)CCC2 |  | inconclusive: 3% |

Four of the compounds above, with tabs:
Compound	Potency	lipid storage change, negative = inhibition
COc1ccc(/C=C/C(=O)c2ccc(O)cc2)cc1CN1CCOCC1	inconclusive: 29.1 µM [falling, single point]	
Cc1cc(C(=O)O)c(CSCc2cc(C(=O)O)oc2C)o1	inconclusive: 18.4 µM [activator, single point]	
Cc1csc(CN(C)C(=O)CC2C(=O)NCCN2Cc2ccc(Cl)c(F)c2)n1 (stereo not drawn)	inconclusive: 6.51 µM [falling, single point]	
COc1ccc(C(C)=O)cc1CSc1nnc(C)n1-c1ccccc1		inconclusive: -150%

Following part.

| Compound | Potency | lipid storage change, negative = inhibition |
| --- | --- | --- |
| COCCn1c(=NC(=O)c2nc3ccccc3s2)sc2cc(S(C)(=O)=O)ccc21 |  | inconclusive: 14.8% |
| O=C(COC(=O)CC(c1ccccc1)c1ccccc1)Nc1cccc(F)c1 |  | inconclusive: 4.04% |
| O=c1c2cc(NC(=S)N3CCC(N4CCCCC4)CC3)ccc2nc2n1CCCCC2 |  | inconclusive: 7.71% |
| Cc1cc(=O)n2nc(N3CCC(C(=O)NCc4ccc(Cl)cc4)CC3)sc2n1 | inconclusive: 29.1 µM [activator, single point] |  |
| NC(=O)c1sc(=S)n(-c2ccc(Br)cc2)c1N |  | inconclusive: 21.6% [at 9.22 µM] |
| Cc1cc(NC(=O)CN2C(=O)C3CC=CCC3C2=O)no1 (stereo not drawn) |  | inconclusive: -28.6% |
| O=C(O)CCN1/C(=C/C=Nc2ccccc2)Oc2ccccc21 | inconclusive: 0.82 µM [falling, full curve] |  |
| CCCCn1c(=O)c(CCC(=O)OCC(=O)NC(=O)NCCOC)nc2ccccc21 |  | inconclusive: 2.42% |
| CCN(c1ccccc1)S(=O)(=O)c1ccc(OC)c(NC(=O)c2c(C)noc2C)c1 | inconclusive: 25.9 µM [activator, partial curve] |  |
| O=C(COc1ccc(C(=O)c2ccccc2)cc1)Nc1cccnc1 |  | inconclusive: -100% |
| Cc1cc(C)n(CC(O)COc2cccc(OCC(O)Cn3nc(C)cc3C)c2)n1 (stereo not drawn) |  | inconclusive: 15.5% |
| Cc1cccc(NC(=O)c2ccc(-n3cncn3)c([N+](=O)[O-])c2)c1 |  | inconclusive: 4.6% |
| N#C/C(=C\c1ccc(-c2ccc(C(=O)O)cc2)o1)c1nc2ccccc2[nH]1 | inconclusive: 1.64 µM [cytotoxic, partial curve] |  |
| Cc1ccc(C)c(Cn2ncc3ccccc32)c1 |  | inconclusive: 18% |
| Cc1cc2c(c(=O)o1)C1O[C@](CCCCN3C(=O)c4ccccc4C3=O)(Cc3cc(C#N)ccc31)O2 |  | inconclusive: 23.1% [at 9.22 µM] |
| CCOC(=O)Cc1csc(NC(=O)CSc2nnc(Cc3csc(N)n3)n2C)n1 |  | inconclusive: -42.9% |
| Cc1cccc(NC(=O)c2sc(Cl)nc2C)c1C |  | inactive: 17.3% |
| CCOC(=O)N1CCN(CC(O)COc2cc(C)ccc2C(C)C)CC1 (stereo not drawn) |  | inconclusive: 8.75% |
| COCCNc1nc(-c2cc(C)c(C)cc2C)cs1 |  | inconclusive: -35.5% [at 0.00295 µM] |
| COC(=O)c1ccc(NC(=O)Nc2ccc(OC)c(OC)c2)cc1 |  | inconclusive: 41.3% |
| CCOC(=O)c1ccc(NC(=O)c2nc[nH]c2C(=O)N[C@@H](CC(C)C)C(=O)OCc2ccccc2)cc1 | inconclusive: 29.1 µM [falling, single point] |  |
| CCOc1cc(/C=C2/C(=O)N(c3ccccc3)N=C2C)ccc1OC(=O)c1ccco1 |  | inconclusive: 6.41% |
| COc1ccc(OC)c(C(C(=O)NC2CCCCC2)N(C(=O)c2ccccn2)c2cccnc2)c1 (stereo not drawn) |  | inconclusive: -3.24% |
| COc1ccc(/C=N/NC(=O)c2cc(-c3ccccc3)nc3ccccc23)cc1O | inconclusive: 0.291 µM [activator, full curve] |  |
| Nc1cccc(-c2nc3ccc(N)cc3s2)c1 |  | inconclusive: 12.5% |
| CCOc1ccc(CCNC(=O)c2ccc(CS(=O)Cc3ccc(Cl)cc3)o2)cc1 (stereo not drawn) | inconclusive: 6.51 µM [falling, full curve, poor fit] |  |

| Compound | Potency | lipid storage change, negative = inhibition |
| --- | --- | --- |
| Cc1cc(C(=O)NNC(=S)NC(C)c2ccccc2)c2ccccc2n1 (stereo not drawn) | inconclusive: 29.1 µM [falling, single point] |  |
| CCN(CC)CCCn1c2c(c(SCC(=O)Nc3nccs3)nc1=O)CCC2 |  | inconclusive: -1.2% |
| Clc1ccc(Cc2nn3c(Cn4nnc5ccccc54)nnc3s2)cc1 | inconclusive: 2.31 µM [rising, partial curve] |  |
| FC(F)(F)c1cc(-c2cccs2)nc(-n2cc(Br)cn2)n1 |  | inconclusive: 66.3% |
| COc1ccc(SC[C@H](Cc2ccccc2)N2CC[C@@H](C)CCC2=O)cc1 |  | inconclusive: 7.4% |
| Clc1ccc(C=NC23CN4CN(CN(C4)C2)C3)cc1 |  | inconclusive: -123% |
| N#CCc1nn(-c2ccccc2)c(N)c1C#N |  | inconclusive: -0.687% |
| O=c1c2cnn(-c3ccccc3)c2ncn1Cc1ccccn1 |  | inactive: 9.36% |
| O=C(O)Cn1nnnc1-c1ccc(F)cc1 | inconclusive: 0.13 µM [falling, full curve] |  |
| O=C(O)CN1C(=O)/C(=C\c2ccccc2OCc2ccc(F)cc2)SC1=S |  | inconclusive: 21.9% |
| Cc1cc2nc(SCCOC(=O)Nc3cccc(Cl)c3)nc(C)c2cc1C | inconclusive: 18.4 µM [falling, partial curve] |  |
| Cc1nn(Cc2c(Cl)cccc2Cl)c(Cl)c1/C=N/NC(=O)c1cccnc1 |  | inconclusive: 44.5% |
| O=C1C(Cl)=C(N2CCCCCC2)C(=O)N1c1ccccc1 |  | inconclusive: 14.8% |
| Cc1cc(Cl)ccc1OCC(=O)NCCC(=O)O | inconclusive: 29.1 µM [falling, single point] |  |
| CN(Cc1cccs1)C(=O)COc1cccc(-n2cnnn2)c1 |  | inconclusive: 19% |
| COC(=O)C1=C(C)N(c2ccc(S(N)(=O)=O)cc2)C(=O)C1 |  | inconclusive: 4.42% [at 9.22 µM] |
| Cn1ccc(C(=O)Nc2ccc3c(c2)OCCO3)n1 |  | inconclusive: 2.7% |
| CC(C(=O)NCc1ccccn1)c1ccc([N+](=O)[O-])cc1 (stereo not drawn) |  | inconclusive: -16% |
| Cc1cccc(CC2CC(=O)N(c3nc4ccccc4s3)C2=O)c1 (stereo not drawn) |  | inconclusive: 13.2% |
| C(=N\Nc1nc(N2CCOCC2)nc(N2CCOCC2)n1)/c1ccco1 |  | inconclusive: -25.5% |
| O=C(/C=C/c1ccccc1)Nc1cc(NC(=O)/C=C/c2ccccc2)cc(C(=O)O)c1 |  | inconclusive: 14.1% |
| O=C(NC1CCCCC1)C12CC3CC(C1)CC(n1cncn1)(C3)C2 |  | inconclusive: 9.77% |
| COc1ccccc1-n1nnnc1SCC(=O)NC1CCCCC1 |  | inconclusive: -36.8% |
| COc1cccc(CNC(=O)CN(C)S(=O)(=O)c2ccc3c(c2)c(=O)n(C)c(=O)n3C)c1 |  | inactive: -17.1% |
| N/C(=N\c1nc(CSc2nc3ccccc3s2)cc(=O)[nH]1)Nc1ccc(F)cc1 |  | inconclusive: 9.17% |
| CSc1nc2ccc(NC(=O)c3c(F)cccc3F)cc2s1 |  | inconclusive: 4.23% |

Source: PubChem BioAssay AID2685 (National Center for Advancing Translational Sciences (NCATS), 2010)
